PubChem BioAssay AID743448, Peter MacCallum Cancer Centre | 2014
This is a random part of the 106 reagents, in one setting of the screen. 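Calls are per line and drug panel including etoposide, not vorinostat-specific; gene picks needed hits in two or more extra lines with vorinostat versus etoposide.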 Further read-outs or replicates are left out here.

Aim: 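Test whether knock-downs sensitising to vorinostat hold across several colon lines but not etoposide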 (follow-up of hits)
Cell system: four human colon cancer cell lines: HCT116-VR (vorinostat-resistant HCT116 derivative), SW480, SW620 and LIM1215
Reagent: siRNA pool against human genes, 40 nM siRNA pool
Duration: drug added two days after transfection, read one day later
Conditions: vorinostat 2.5 µM on one half of each plate, etoposide 5 µM on the other half
Cell line and drug panel: vorinostat-resistant HCT116 cells with vorinostat
Measurement: 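Caspase luminescence and viability fluorescence, each expressed relative to mock transfection and also as robust z-scores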
Direction: caspase ratio to mock: higher = more caspase activity than mock; viability ratio to mock: higher = more live cells than mock
Call rule: 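a row is a hit if caspase relative to mock is 1.6 or above or viability relative to mock is 0.75 or below; wells dying heavily without drug are not called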
Calls: active = caspase or viability hit in this panel; inactive = no change, or unhealthy well

{"Target gene": "C22orf15 (chromosome 22 open reading frame 15)", "PubChem SID": "SID135623572", "caspase ratio to mock": 2.06, "viability ratio to mock": 1, "Outcome": "active"}
{"Target gene": "UTP3 (UTP3 small subunit processome component)", "PubChem SID": "SID134324596", "caspase ratio to mock": 1.52, "viability ratio to mock": 0.82, "Outcome": "inactive"}
{"Target gene": "CNOT1 (CCR4-NOT transcription complex subunit 1)", "PubChem SID": "SID134319414", "caspase ratio to mock": 6.02, "viability ratio to mock": 0.97, "Outcome": "active"}
{"Target gene": "BEGAIN (brain enriched guanylate kinase associated)", "PubChem SID": "SID134318275", "caspase ratio to mock": 1.83, "viability ratio to mock": 1.08, "Outcome": "active"}
{"Target gene": "CAPN12 (calpain 12)", "PubChem SID": "SID134311229", "caspase ratio to mock": 2.19, "viability ratio to mock": 0.94, "Outcome": "active"}
{"Target gene": "RBBP8 (RB binding protein 8, endonuclease)", "PubChem SID": "SID134315719", "caspase ratio to mock": 2.91, "viability ratio to mock": 0.92, "Outcome": "active"}
{"Target gene": "GATA1 (GATA binding protein 1)", "PubChem SID": "SID134314339", "caspase ratio to mock": 2.37, "viability ratio to mock": 1.17, "Outcome": "active"}
{"Target gene": "RBM42 (RNA binding motif protein 42)", "PubChem SID": "SID134319687", "caspase ratio to mock": 1.35, "viability ratio to mock": 0.84, "Outcome": "inactive"}
{"Target gene": "MRPL19 (mitochondrial ribosomal protein L19)", "PubChem SID": "SID152149113", "caspase ratio to mock": 1.59, "viability ratio to mock": 1.03, "Outcome": "inactive"}
{"Target gene": "KIR2DL1", "PubChem SID": "SID135624029", "caspase ratio to mock": 1.34, "viability ratio to mock": 1.1, "Outcome": "inactive"}
{"Target gene": "C1orf52 (chromosome 1 open reading frame 52)", "PubChem SID": "SID152148955", "caspase ratio to mock": 2.42, "viability ratio to mock": 0.9, "Outcome": "active"}
{"Target gene": "SERTAD1 (SERTA domain containing 1)", "PubChem SID": "SID135623986", "caspase ratio to mock": 2.44, "viability ratio to mock": 0.88, "Outcome": "active"}
{"Target gene": "NUP205 (nucleoporin 205)", "PubChem SID": "SID152152395", "caspase ratio to mock": 2.26, "viability ratio to mock": 0.54, "Outcome": "active"}
{"Target gene": "RWDD2A (RWD domain containing 2A)", "PubChem SID": "SID152155993", "caspase ratio to mock": 1.66, "viability ratio to mock": 1.02, "Outcome": "active"}
{"Target gene": "TFAP2D (transcription factor AP-2 delta)", "PubChem SID": "SID135622988", "caspase ratio to mock": 2.26, "viability ratio to mock": 1.12, "Outcome": "active"}
{"Target gene": "VPS4A (vacuolar protein sorting 4 homolog A)", "PubChem SID": "SID134317329", "caspase ratio to mock": 2.31, "viability ratio to mock": 0.81, "Outcome": "active"}
{"Target gene": "AP5S1 (adaptor related protein complex 5 subunit sigma 1)", "PubChem SID": "SID134324840", "caspase ratio to mock": 1.31, "viability ratio to mock": 0.9, "Outcome": "inactive"}
{"Target gene": "PNN (pinin, desmosome associated protein)", "PubChem SID": "SID152155649", "caspase ratio to mock": 3.08, "viability ratio to mock": 0.84, "Outcome": "active"}
{"Target gene": "OSBPL6 (oxysterol binding protein like 6)", "PubChem SID": "SID134314182", "caspase ratio to mock": 1.7, "viability ratio to mock": 1.04, "Outcome": "active"}
{"Target gene": "OR6T1 (olfactory receptor family 6 subfamily T member 1)", "PubChem SID": "SID135624576", "caspase ratio to mock": 1.62, "viability ratio to mock": 0.88, "Outcome": "active"}
{"Target gene": "TGM5 (transglutaminase 5)", "PubChem SID": "SID135621811", "caspase ratio to mock": 1.73, "viability ratio to mock": 1.08, "Outcome": "active"}
{"Target gene": "CCDC59 (coiled-coil domain containing 59)", "PubChem SID": "SID152156179", "caspase ratio to mock": 1.66, "viability ratio to mock": 0.79, "Outcome": "active"}
{"Target gene": "ANO9 (anoctamin 9)", "PubChem SID": "SID135624594", "caspase ratio to mock": 1.63, "viability ratio to mock": 0.98, "Outcome": "active"}
{"Target gene": "RGS18 (regulator of G protein signaling 18)", "PubChem SID": "SID135621582", "caspase ratio to mock": 2.67, "viability ratio to mock": 1.24, "Outcome": "active"}
{"Target gene": "POLR2I (RNA polymerase II subunit I)", "PubChem SID": "SID134316532", "caspase ratio to mock": 2.56, "viability ratio to mock": 0.74, "Outcome": "active"}
{"Target gene": "EIF2B5 (eukaryotic translation initiation factor 2B subunit epsilon)", "PubChem SID": "SID135622351", "caspase ratio to mock": 1.13, "viability ratio to mock": 0.74, "Outcome": "active"}
{"Target gene": "POLR2K (RNA polymerase II, I and III subunit K)", "PubChem SID": "SID135622236", "caspase ratio to mock": 2.54, "viability ratio to mock": 0.74, "Outcome": "active"}
{"Target gene": "SIN3A (SIN3 transcription regulator family member A)", "PubChem SID": "SID134317232", "caspase ratio to mock": 1.92, "viability ratio to mock": 1.05, "Outcome": "active"}

Entries above whose gene name begins with C or c:
{"Target gene": "C22orf15 (chromosome 22 open reading frame 15)", "PubChem SID": "SID135623572", "caspase ratio to mock": 2.06, "viability ratio to mock": 1, "Outcome": "active"}
{"Target gene": "CNOT1 (CCR4-NOT transcription complex subunit 1)", "PubChem SID": "SID134319414", "caspase ratio to mock": 6.02, "viability ratio to mock": 0.97, "Outcome": "active"}
{"Target gene": "CAPN12 (calpain 12)", "PubChem SID": "SID134311229", "caspase ratio to mock": 2.19, "viability ratio to mock": 0.94, "Outcome": "active"}
{"Target gene": "C1orf52 (chromosome 1 open reading frame 52)", "PubChem SID": "SID152148955", "caspase ratio to mock": 2.42, "viability ratio to mock": 0.9, "Outcome": "active"}
{"Target gene": "CCDC59 (coiled-coil domain containing 59)", "PubChem SID": "SID152156179", "caspase ratio to mock": 1.66, "viability ratio to mock": 0.79, "Outcome": "active"}
